System: AptaFluor detection reagents
Assay: Tolerance of substrates and reagents in the AptaFluor SAH assay
Settings: 10 nM SAH

Compound	Tolerance (maximum concentration with < 10% change in assay signal)
O=C(O)CN(CCN(CC(=O)O)CC(=O)O)CC(=O)O [EDTA]	1 mM
Tween 20	0.50%
CCO [Ethanol]	50%
Triton X-100	0.10%
CO [Methanol]	50%
O=C(O)CN(CCOCCOCCN(CC(=O)O)CC(=O)O)CC(=O)O [EGTA]	1 mM
